# At least one structure is not confirmed: it was looked up by name or label, or the drawing left a doubt.
# Target: α1 adrenergic receptor (human cerebral cortex membranes)
# Assay: Alpha1 (human brain) receptor binding assay
# Conditions: 22° C., 30 minutes, [3H] radioligand
# Excerpt: The present compound or compounds may be included in a medication composition together with one or more other components to provide a medication composition which can be effectively administered. Such other components, e.g., carriers, anti-oxidants, bulking agents and the like, may be chosen from those materials which are conventional and well known in the art, e.g., as being included in medication compositions with α2 agonists. Whereas the effective dose of the compounds of the present compositions will depend on the nature of the host mammal and the specific diesease or condition treated it is anticipated that an effective daily dose of the compounds is in the range of 1 microgramm--10 mg per kg/body weight of the host. […]
# Membrane preparation: Membrane suspensions were prepared from human cerebral cortex (HCC), HT-29 cells (HT) and rat kidney cortex (RtKC), as applicable. […] The filters were then oven dried and transferred to scintillation vials containing 5 mls of Beckman's Ready Protein^R scintillation cocktail for counting. […] Protein concentrations were determined with a protein assay kit from Bio Rad. Binding isotherms, equilibrium dissociation and affinity constants were analyzed and determined by the non-linear least squares curve fitting program AccuFit Competition/Saturation by Beckman. […]
smiles,measurement,value
"c1cc2c(c(NC3=NCCO3)c1)CCCC2 [Compound 2, 2-(5,6,7,8-tetrahydronaphthylamino)-oxazoline]",Ki,1630 nM
